These are yes or no findings as the source states them, for the method shown. For some assays here: Sequences can lack the tags named with a protein. Each block holds one binder with its values, some of them ahead of it.
Columns and labels:
Asf1 (1–154) = biological target: T1, Asf1 (1–154) (D. melanogaster, UniProt Q9V464 1-154); assay: condition: 100 μM Hairless in the syringe and 10 μM Asf1 in the cell (typical experiment); ITC; MicroCal VP-ITC, 25 °C, 20 mM HEPES pH 7.5, 150 mM NaCl; typically 100 μM Hairless in the syringe and 10 μM Asf1 in the cell; one-site binding model; both purified
T1 construct: Anti-silencing factor 1 (Asf1), D. melanogaster, amino acids 1-154; modified pET-14p construct
T1 sequence (looked up): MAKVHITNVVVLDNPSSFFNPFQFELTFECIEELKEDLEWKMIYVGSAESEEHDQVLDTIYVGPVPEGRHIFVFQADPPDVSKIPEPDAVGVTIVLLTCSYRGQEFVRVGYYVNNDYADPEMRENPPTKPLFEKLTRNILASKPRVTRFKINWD

[1] = biological target: T2, Hairless, full-length, two-hybrid bait (pEG H) (Drosophila melanogaster) (UniProt Q02308); assay: two-hybrid; H constructs as bait in pEG202, Asf1 or Su(H) as prey in pJG4-5; lacZ reporter from pSH18-34, blue coloration of yeast colonies; overnight incubation for Su(H)-H, 48 h for Asf1-H
T2 sequence: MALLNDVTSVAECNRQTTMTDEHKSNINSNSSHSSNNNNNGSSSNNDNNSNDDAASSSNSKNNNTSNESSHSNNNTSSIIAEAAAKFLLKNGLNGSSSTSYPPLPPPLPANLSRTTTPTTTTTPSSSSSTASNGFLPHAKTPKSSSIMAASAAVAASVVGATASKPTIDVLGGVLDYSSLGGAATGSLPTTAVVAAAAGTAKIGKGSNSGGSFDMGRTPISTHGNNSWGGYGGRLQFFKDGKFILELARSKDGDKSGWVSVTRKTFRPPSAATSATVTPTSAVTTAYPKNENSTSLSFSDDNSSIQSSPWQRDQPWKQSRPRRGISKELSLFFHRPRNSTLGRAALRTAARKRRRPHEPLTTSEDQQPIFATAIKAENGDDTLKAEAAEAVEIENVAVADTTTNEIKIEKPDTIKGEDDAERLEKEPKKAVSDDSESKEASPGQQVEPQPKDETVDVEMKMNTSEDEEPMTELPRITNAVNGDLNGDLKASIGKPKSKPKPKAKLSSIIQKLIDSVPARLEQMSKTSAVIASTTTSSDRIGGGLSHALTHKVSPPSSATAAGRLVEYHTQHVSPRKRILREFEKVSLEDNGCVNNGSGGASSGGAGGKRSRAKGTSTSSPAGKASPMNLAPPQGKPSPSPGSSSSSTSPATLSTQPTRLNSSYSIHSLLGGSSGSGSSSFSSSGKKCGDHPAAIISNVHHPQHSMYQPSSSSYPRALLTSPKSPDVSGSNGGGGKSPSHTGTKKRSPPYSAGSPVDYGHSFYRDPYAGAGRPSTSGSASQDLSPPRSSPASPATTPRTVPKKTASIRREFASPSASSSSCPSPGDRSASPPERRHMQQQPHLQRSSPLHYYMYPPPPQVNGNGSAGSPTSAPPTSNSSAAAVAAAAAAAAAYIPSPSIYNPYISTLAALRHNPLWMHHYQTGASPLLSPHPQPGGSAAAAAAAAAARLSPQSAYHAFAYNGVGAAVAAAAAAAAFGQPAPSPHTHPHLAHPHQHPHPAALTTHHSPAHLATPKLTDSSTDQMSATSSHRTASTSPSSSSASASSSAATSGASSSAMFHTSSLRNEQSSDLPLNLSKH

[2] = biological target: T3, Hairless 295–317-myc MBP (Drosophila melanogaster) (UniProt Q02308); assay: co-IP; Myc-trap: purified Asf1-HA-MBP or Su(H)-GST mixed 1:1 with NTCTmyc-MBP peptides, about 10 min at 4 °C, 150 mM NaCl, 50 mM Tris pH7.5, 0.1% SDS; Myc-tagged H peptides trapped on anti-Myc nanobody magnetic beads 1 h at 4 °C; Western blot with anti-Myc, anti-HA, anti-GST; both purified
T3 sequence: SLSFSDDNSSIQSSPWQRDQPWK

[3] = biological target: T4, NT^ΔCTmyc-MBP (Hairless 212-369 lacking codons 300-337) (Drosophila melanogaster) (UniProt Q02308); assay: as above
T4 sequence: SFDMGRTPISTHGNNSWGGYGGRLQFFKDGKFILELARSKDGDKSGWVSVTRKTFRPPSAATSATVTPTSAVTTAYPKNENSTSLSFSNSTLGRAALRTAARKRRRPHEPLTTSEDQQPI

B2: Asf1, full-length, two-hybrid prey (pJG Asf1) (protein, UniProt Q9V464 1-218)
chain: MAKVHITNVVVLDNPSSFFNPFQFELTFECIEELKEDLEWKMIYVGSAESEEHDQVLDTIYVGPVPEGRHIFVFQADPPDVSKIPEPDAVGVTIVLLTCSYRGQEFVRVGYYVNNDYADPEMRENPPTKPLFEKLTRNILASKPRVTRFKINWDYGHINGNGNGVENGHQDEMATDGPSTSEAASAVIHPEDDNSLAMPMENGIKALNENSNSLAMEC
- binding [1]: no binding

B3: Asf1-HA-MBP (full-length Drosophila Asf1) (protein, UniProt Q9V464 1-218)
chain: MAKVHITNVVVLDNPSSFFNPFQFELTFECIEELKEDLEWKMIYVGSAESEEHDQVLDTIYVGPVPEGRHIFVFQADPPDVSKIPEPDAVGVTIVLLTCSYRGQEFVRVGYYVNNDYADPEMRENPPTKPLFEKLTRNILASKPRVTRFKINWDYGHINGNGNGVENGHQDEMATDGPSTSEAASAVIHPEDDNSLAMPMENGIKALNENSNSLAMEC
- binding [2]: no binding
- binding [3]: no binding

Other lines, results leading:

- binding (Asf1 (1–154)): no binding
B1: H (232–338) (domain or fragment, UniProt Q02308 232-338)
chain: GGRLQFFKDGKFILELARSKDGDKSGWVSVTRKTFRPPSAATSATVTPTSAVTTAYPKNENSTSLSFSDDNSSIQSSPWQRDQPWKQSRPRRGISKELSLFFHRPRN

- binding (Asf1 (1–154)): no binding
Binder: STLGRAALRTAARKRRRPHE (domain or fragment, UniProt Q02308 339-358) [H (339–358)]

Reference: publication PMC9858708, “Genetic and Molecular Interactions between H^ΔCT, a Novel Allele of the Notch Antagonist Hairless, and the Histone Chaperone Asf1 in Drosophila melanogaster” (Genes, 2023)
